According to the supplement of paper PMC10626197:
Where a name gives a salt, the structure may show the parent alone. Some well-known active drugs show little effect in this data set, so a weak value is uncertain.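 MCF7, a breast cancer cell line, was exposed to pairs of drugs across a grid of doses. Every plate had solvent-only (DMSO) wells as the untreated reference and a doxorubicin series as the total-kill control. No hit threshold is applied to these viability readings.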

Test system: MCF7
Assay: cell viability relative to DMSO control (raw); higher = more viable cells
Settings: exposure time 72 h
Protocol: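 MCF7 cells, 1000 cells/well in 384-well plates, treated with 6x6 dose matrices of drug pairs (1:3 serial dilutions, DMSO as lowest dose) for 72 h at 37 °C. Viability read by CellTiter-Glo luminescence, 3 biological replicates. Normalised viability sets 0% at the highest doxorubicin dose and 100% at the 0,0 µM control per combination.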

CO[C@H]1C(=O)[C@]2(C)[C@@H](OC)C[C@H]3OC[C@@]3(OC(C)=O)[C@H]2[C@H](OC(=O)c2ccccc2)[C@]2(O)C[C@H](OC(=O)[C@H](O)[C@@H](NC(=O)OC(C)(C)C)c3ccccc3)C(C)=C1C2(C)C [Cabazitaxel] + C=C1/C(=C\C=C2/CCC[C@]3(C)[C@@H]([C@H](C)CCCC(C)C)CC[C@@H]23)C[C@@H](O)C[C@@H]1O [Alfacalcidol]
cell viability [%]
Settings	drug 2 concentration 0 µM	drug 2 concentration 0.617284 µM	drug 2 concentration 1.85185 µM	drug 2 concentration 5.55556 µM	drug 2 concentration 16.6667 µM	drug 2 concentration 50 µM
drug 1 concentration 0.0184691 µM	74.5	71.7	68.2	74.1	65.4	0.682
drug 1 concentration 0.0554074 µM	80.8	76.1	77.9	76.1	73	0.861
drug 1 concentration 0.166222 µM	83.6	81	76.9	74.9	75.9	0.372
drug 1 concentration 0.498667 µM	78.3	74.8	74.9	72.6	54.3	0.534
drug 1 concentration 1.496 µM	75.3	67.5	67.9	68.6	56.7	0.41

CO[C@H]1C(=O)[C@]2(C)[C@@H](OC)C[C@H]3OC[C@@]3(OC(C)=O)[C@H]2[C@H](OC(=O)c2ccccc2)[C@]2(O)C[C@H](OC(=O)[C@H](O)[C@@H](NC(=O)OC(C)(C)C)c3ccccc3)C(C)=C1C2(C)C [Cabazitaxel] + C=CC(=O)Nc1cccc(Nc2nc(Nc3ccc(OCCOC)cc3)ncc2F)c1 [Spebrutinib]
cell viability [%]
Settings	drug 2 concentration 0 µM	drug 2 concentration 0.37037 µM	drug 2 concentration 1.11111 µM	drug 2 concentration 3.33333 µM	drug 2 concentration 10 µM	drug 2 concentration 30 µM
drug 1 concentration 0.0184691 µM	103	97.5	99.2	77.1	61.9	5.51
drug 1 concentration 0.0554074 µM	99.7	95.8	89.8	79.2	62.2	10.2
drug 1 concentration 0.166222 µM	104	105	103	78	64.8	10.2
drug 1 concentration 0.498667 µM	93.6	100	94.7	83	50.7	7.55
drug 1 concentration 1.496 µM	107	106	106	85.7	65	7.03

CO[C@H]1C(=O)[C@]2(C)[C@@H](OC)C[C@H]3OC[C@@]3(OC(C)=O)[C@H]2[C@H](OC(=O)c2ccccc2)[C@]2(O)C[C@H](OC(=O)[C@H](O)[C@@H](NC(=O)OC(C)(C)C)c3ccccc3)C(C)=C1C2(C)C [Cabazitaxel] + CCCNC(=O)c1cn2ncnc(Nc3cc(C(=O)NC4CC4)ccc3C)c2c1C [BMS-582949 (hydrochloride)]
cell viability [%]
Settings	drug 2 concentration 0 µM	drug 2 concentration 0.37037 µM	drug 2 concentration 1.11111 µM	drug 2 concentration 3.33333 µM	drug 2 concentration 10 µM	drug 2 concentration 30 µM
drug 1 concentration 0.0184691 µM	99.6	100	102	98.3	96.6	79.8
drug 1 concentration 0.0554074 µM	110	103	106	106	105	83.6
drug 1 concentration 0.166222 µM	109	106	114	108	102	87.1
drug 1 concentration 0.498667 µM	107	106	105	105	99.8	84.4
drug 1 concentration 1.496 µM	107	108	102	105	96	82.8

CO[C@H]1C(=O)[C@]2(C)[C@@H](OC)C[C@H]3OC[C@@]3(OC(C)=O)[C@H]2[C@H](OC(=O)c2ccccc2)[C@]2(O)C[C@H](OC(=O)[C@H](O)[C@@H](NC(=O)OC(C)(C)C)c3ccccc3)C(C)=C1C2(C)C [Cabazitaxel] + CN1CCN(c2nc(C3=C(c4c[nH]c5ccccc45)C(=O)NC3=O)c3ccccc3n2)CC1 [Sotrastaurin]
cell viability [%]
Settings	drug 2 concentration 0 µM	drug 2 concentration 0.0123457 µM	drug 2 concentration 0.037037 µM	drug 2 concentration 0.111111 µM	drug 2 concentration 0.333333 µM	drug 2 concentration 1 µM
drug 1 concentration 0.0184691 µM	76.1	71.6	79.2	79.4	73.1	73.3
drug 1 concentration 0.0554074 µM	77.1	76	77.9	75	75.4	77.6
drug 1 concentration 0.166222 µM	85.7	87.2	84.3	82.8	80.8	82.1
drug 1 concentration 0.498667 µM	79.9	78.6	84.4	82	79.1	76.9
drug 1 concentration 1.496 µM	80.4	81	85.5	80.2	75.3	78

CO[C@H]1C(=O)[C@]2(C)[C@@H](OC)C[C@H]3OC[C@@]3(OC(C)=O)[C@H]2[C@H](OC(=O)c2ccccc2)[C@]2(O)C[C@H](OC(=O)[C@H](O)[C@@H](NC(=O)OC(C)(C)C)c3ccccc3)C(C)=C1C2(C)C [Cabazitaxel] + CN(C)C1CCN(C(=O)c2ccc(NC(=O)Nc3ccc(-c4nc(N5CCOCC5)nc(N5CCOCC5)n4)cc3)cc2)CC1 [Gedatolisib (PF-05212384; PKI-587)]
cell viability [%]
Settings	drug 2 concentration 0 µM	drug 2 concentration 0.0148148 µM	drug 2 concentration 0.0444444 µM	drug 2 concentration 0.133333 µM	drug 2 concentration 0.4 µM	drug 2 concentration 1.2 µM
drug 1 concentration 0.0184691 µM	96.7	77.5	59.4	40.9	34.4	29.9
drug 1 concentration 0.0554074 µM	99.9	74.8	54.7	34.1	29.1	28.3
drug 1 concentration 0.166222 µM	94.4	77.2	58.3	38.7	31.6	26.3
drug 1 concentration 0.498667 µM	93.4	66.1	47.3	32	25.6	25.9
drug 1 concentration 1.496 µM	95.5	70.6	51.2	34.9	30.2	25.8

CO[C@H]1C(=O)[C@]2(C)[C@@H](OC)C[C@H]3OC[C@@]3(OC(C)=O)[C@H]2[C@H](OC(=O)c2ccccc2)[C@]2(O)C[C@H](OC(=O)[C@H](O)[C@@H](NC(=O)OC(C)(C)C)c3ccccc3)C(C)=C1C2(C)C [Cabazitaxel] + CN(C)C(=O)c1cc2cnc(Nc3ccc(N4CCNCC4)cn3)nc2n1C1CCCC1 [Ribociclib]
cell viability [%]
Settings	drug 2 concentration 0 µM	drug 2 concentration 0.123457 µM	drug 2 concentration 0.37037 µM	drug 2 concentration 1.11111 µM	drug 2 concentration 3.33333 µM	drug 2 concentration 10 µM
drug 1 concentration 0.0184691 µM	101	95.6	95.9	88.4	87.3	75.5
drug 1 concentration 0.0554074 µM	105	96.5	94.1	86	86.3	79.2
drug 1 concentration 0.166222 µM	107	102	100	97.2	93.9	86.7
drug 1 concentration 0.498667 µM	106	101	95.4	86.1	89.7	80.7
drug 1 concentration 1.496 µM	109	103	94.1	93.3	90.7	83.5

CO[C@H]1C(=O)[C@]2(C)[C@@H](OC)C[C@H]3OC[C@@]3(OC(C)=O)[C@H]2[C@H](OC(=O)c2ccccc2)[C@]2(O)C[C@H](OC(=O)[C@H](O)[C@@H](NC(=O)OC(C)(C)C)c3ccccc3)C(C)=C1C2(C)C [Cabazitaxel] + COc1cc2c(Oc3ccc(NC(=O)C4(C(=O)Nc5ccc(F)cc5)CC4)cc3F)ccnc2cc1OCCCN1CCOCC1 [Foretinib]
cell viability [%]
Settings	drug 2 concentration 0 µM	drug 2 concentration 0.348765 µM	drug 2 concentration 1.0463 µM	drug 2 concentration 3.13889 µM	drug 2 concentration 9.41667 µM	drug 2 concentration 28.25 µM
drug 1 concentration 0.0184691 µM	103	101	92	53.8	13.9	0.954
drug 1 concentration 0.0554074 µM	111	109	86.3	57.9	12.9	1.3
drug 1 concentration 0.166222 µM	102	100	94.6	57.6	12.4	1.33
drug 1 concentration 0.498667 µM	114	112	95.5	56.8	14.6	1.17
drug 1 concentration 1.496 µM	105	110	86.6	55.9	6.19	0.784

CO[C@H]1C(=O)[C@]2(C)[C@@H](OC)C[C@H]3OC[C@@]3(OC(C)=O)[C@H]2[C@H](OC(=O)c2ccccc2)[C@]2(O)C[C@H](OC(=O)[C@H](O)[C@@H](NC(=O)OC(C)(C)C)c3ccccc3)C(C)=C1C2(C)C [Cabazitaxel] + COc1cc2nc(N3CCN(C(=O)C4CCCO4)CC3)nc(N)c2cc1OC [Terazosin (hydrochloride dihydrate)]
cell viability [%]
Settings	drug 2 concentration 0 µM	drug 2 concentration 0.0308642 µM	drug 2 concentration 0.0925926 µM	drug 2 concentration 0.277778 µM	drug 2 concentration 0.833333 µM	drug 2 concentration 2.5 µM
drug 1 concentration 0.0184691 µM	91.8	96.5	90.4	93.1	93.2	97.2
drug 1 concentration 0.0554074 µM	89.6	101	94.4	99.4	101	97.3
drug 1 concentration 0.166222 µM	90.3	86.1	87.8	94	91.6	88.8
drug 1 concentration 0.498667 µM	87.8	87.7	91.5	92.3	89.9	90.2
drug 1 concentration 1.496 µM	90.6	94.2	94	93.3	93.4	86.2

CO[C@H]1C(=O)[C@]2(C)[C@@H](OC)C[C@H]3OC[C@@]3(OC(C)=O)[C@H]2[C@H](OC(=O)c2ccccc2)[C@]2(O)C[C@H](OC(=O)[C@H](O)[C@@H](NC(=O)OC(C)(C)C)c3ccccc3)C(C)=C1C2(C)C [Cabazitaxel] + COc1cc2ncnc(Nc3ccc(F)c(Cl)c3)c2cc1NC(=O)/C=C/CN1CCCCC1 [Dacomitinib]
cell viability [%]
Settings	drug 2 concentration 0 µM	drug 2 concentration 0.246914 µM	drug 2 concentration 0.740741 µM	drug 2 concentration 2.22222 µM	drug 2 concentration 6.66667 µM	drug 2 concentration 20 µM
drug 1 concentration 0.0184691 µM	109	105	100	88.3	34.1	0.525
drug 1 concentration 0.0554074 µM	101	103	108	98.5	33.2	0.699
drug 1 concentration 0.166222 µM	113	110	106	85.3	39.7	0.592
drug 1 concentration 0.498667 µM	102	102	105	98.9	3.52	0.332
drug 1 concentration 1.496 µM	109	108	109	96.9	37.6	0.755

CO[C@H]1C(=O)[C@]2(C)[C@@H](OC)C[C@H]3OC[C@@]3(OC(C)=O)[C@H]2[C@H](OC(=O)c2ccccc2)[C@]2(O)C[C@H](OC(=O)[C@H](O)[C@@H](NC(=O)OC(C)(C)C)c3ccccc3)C(C)=C1C2(C)C [Cabazitaxel] + COc1cc(Nc2ncc3c(n2)-c2ccc(Cl)cc2C(c2c(F)cccc2OC)=NC3)ccc1C(=O)O [Alisertib]
cell viability [%]
Settings	drug 2 concentration 0 µM	drug 2 concentration 0.0617284 µM	drug 2 concentration 0.185185 µM	drug 2 concentration 0.555556 µM	drug 2 concentration 1.66667 µM	drug 2 concentration 5 µM
drug 1 concentration 0.0184691 µM	83.2	80.2	77	81.6	81.6	76.5
drug 1 concentration 0.0554074 µM	90.2	81.8	86.1	86.5	87.4	83.3
drug 1 concentration 0.166222 µM	80.3	76.4	80.7	83.1	82.1	77.9
drug 1 concentration 0.498667 µM	82.4	83.6	81.8	92.7	82	74.5
drug 1 concentration 1.496 µM	78.5	89.7	91.2	103	91.8	76.1
